Experimental data: PubChem BioAssay AID720504 (National Center for Advancing Translational Sciences (NCATS), 2013)
Among all 360,000 compounds or so, about 10,000 (2.8%) were called active. The shares of active, inactive and inconclusive entries below differ from those in the screen. Calls follow the shape of the dose curve; as a rule, active = well fitted inhibition curve with a large enough effect; inconclusive = small, poorly fitted or top-dose-only effect; inactive = flat fitted curve, though single readings scatter. Potencies beside an inconclusive call are fits to weak or partial responses and may not hold up.

Protein sequences, listed by entry. Tags and fused reporters are not part of them.
UniProt P53350, whole entry, looked up: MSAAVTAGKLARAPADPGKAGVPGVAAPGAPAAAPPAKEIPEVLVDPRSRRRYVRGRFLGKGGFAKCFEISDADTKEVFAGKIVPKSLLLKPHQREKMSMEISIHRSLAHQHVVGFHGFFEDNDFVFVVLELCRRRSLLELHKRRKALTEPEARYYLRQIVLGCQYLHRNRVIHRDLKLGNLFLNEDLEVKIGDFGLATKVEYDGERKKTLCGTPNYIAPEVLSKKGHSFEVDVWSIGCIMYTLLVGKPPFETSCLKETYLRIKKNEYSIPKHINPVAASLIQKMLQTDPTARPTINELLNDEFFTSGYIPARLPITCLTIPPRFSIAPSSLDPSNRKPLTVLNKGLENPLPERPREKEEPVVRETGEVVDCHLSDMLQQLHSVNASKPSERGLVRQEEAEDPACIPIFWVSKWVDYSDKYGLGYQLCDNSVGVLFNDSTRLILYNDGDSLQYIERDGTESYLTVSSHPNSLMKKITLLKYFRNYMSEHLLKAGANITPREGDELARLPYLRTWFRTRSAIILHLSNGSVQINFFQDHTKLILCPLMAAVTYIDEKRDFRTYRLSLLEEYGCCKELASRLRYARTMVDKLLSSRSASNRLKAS

target: Serine/threonine-protein kinase PLK1 (Homo sapiens) (UniProt P53350); test: qHTS for Inhibitors of PLK1-PDB (polo-like kinase 1 - polo-box domain): Primary Screen; settings: Plk1 PBD binding of FITC phosphopeptide, fluorescence polarization; also: nearly all actives have a fitted effect of over 65% in size; as to max response, negative = inhibition: series mostly up to about 57 µM
% is scaled to controls: 0 for no effect and ±100 for the full control effect; potency is read from the fitted curve at half-maximal effect.

Compound	Potency	max response, negative = inhibition
COc1cccc(Nc2nc3ccccc3nc2NS(=O)(=O)c2ccc(NC(C)=O)cc2)c1	active: 67 µM	–
O=C(O)/C(=C\c1ccc2ccccc2c1)c1cccc2ccccc12	active: 21.2 µM	–
Oc1ccccc1/C=N/n1c(COc2ccccc2)n[nH]c1=S	inconclusive: 18.9 µM [inhibitor, partial curve]	–
Cc1cccc(NC(=S)NC(=O)/C=C/c2ccco2)c1	inconclusive: 21.2 µM [inhibitor, partial curve]	–
O=C(O)c1ccn(CSc2cc(Cl)ccc2Cl)n1	inconclusive: 18.9 µM [inhibitor, partial curve]	–
CCC(=O)c1ccc(OCC(=O)OCC(=O)NCCCc2ccccc2)cc1	–	inactive: 0.605%
O=C(NCc1ccco1)c1ccc([N+](=O)[O-])o1	inconclusive: 33.6 µM [inhibitor, single point]	–
CCOc1ccc(C(=O)CC(Sc2ccc(C)cc2)C(=O)O)cc1 (stereo unspecified)	–	inconclusive: -30.5% [inhibitor]
Cc1ccc(C(c2c(O)nc3n(c2=O)CCS3)c2c(O)nc3n(c2=O)CCS3)cc1	active: 16.8 µM	–
CCn1c2ccc(/C(C)=N\O)cc2c2cc(/C(C)=N\O)ccc21	inconclusive: 26.7 µM [inhibitor, single point]	–
CC1=NN(c2ccc(C)cc2)C(=O)/C1=C/c1ccc(-c2cc([N+](=O)[O-])ccc2O)o1	inconclusive: 21.2 µM [inhibitor, single point]	–
N#Cc1ccccc1CSc1ccc(-c2nc3ccccc3[nH]2)cn1	inconclusive: 37.7 µM [inhibitor, single point]	–
Clc1ncccc1-c1nnn(-c2ccccc2)n1	–	inactive: -8.41%
CCN(C(=O)CN1C(=O)S/C(=C\c2cccc(OC)c2)C1=O)C1CCS(=O)(=O)C1 (stereo unspecified)	inconclusive: 29.9 µM [inhibitor, single point]	–
O=C(COc1ccccc1Cl)Nc1ccc(C(=O)O)cc1NC(=O)COc1ccccc1Cl	–	inactive: -18.6%
N#CC(Sc1ccccn1)c1ccc(Cl)cc1Cl (stereo unspecified)	inconclusive: 37.7 µM [inhibitor, single point]	–
Clc1ccccc1OCc1nnc2n1CCCCC2	–	inactive: -5.08%
CCN1CCN(c2cc(C)c3cc(NC(=O)c4ccc(Br)o4)ccc3n2)CC1	–	inactive: -0.588%
O=C(/C=C/c1ccc2ccccc2n1)c1cc(Br)ccc1O	inconclusive: 15 µM [inhibitor, partial curve]	–
Cc1ccccc1S(=O)(=O)N1[C@@H](c2ccc(Cl)cc2)C(C(=O)O)=CC[C@H]1c1ccc(Cl)cc1	active: 29.9 µM	–
CCC(COC)Oc1cc(NCc2ccccc2)c2ncn(C(C)C)c2c1 (stereo unspecified)	inconclusive: 23.8 µM [inhibitor, partial curve]	–
Cc1nc(SCC(=O)c2ccccc2)c(C#N)c(-c2ccco2)c1C(=O)NCc1ccco1	inconclusive: 8.44 µM [inhibitor, partial curve]	–
COc1ccccc1C(=O)Nc1nnc(S(=O)(=O)N2CCCCCC2)s1	–	inactive: -11%
COc1ccccc1NS(=O)(=O)c1cc(NC(=O)c2ccc(=O)[nH]c2)ccc1N1CCOCC1	inconclusive: 21.2 µM [inhibitor, single point]	–

Compounds from the list above that contain sulfur, in the order listed:
Compound	Potency	max response, negative = inhibition
COc1cccc(Nc2nc3ccccc3nc2NS(=O)(=O)c2ccc(NC(C)=O)cc2)c1	active: 67 µM	–
Oc1ccccc1/C=N/n1c(COc2ccccc2)n[nH]c1=S	inconclusive: 18.9 µM [inhibitor, partial curve]	–
Cc1cccc(NC(=S)NC(=O)/C=C/c2ccco2)c1	inconclusive: 21.2 µM [inhibitor, partial curve]	–
O=C(O)c1ccn(CSc2cc(Cl)ccc2Cl)n1	inconclusive: 18.9 µM [inhibitor, partial curve]	–
CCOc1ccc(C(=O)CC(Sc2ccc(C)cc2)C(=O)O)cc1 (stereo unspecified)	–	inconclusive: -30.5% [inhibitor]
Cc1ccc(C(c2c(O)nc3n(c2=O)CCS3)c2c(O)nc3n(c2=O)CCS3)cc1	active: 16.8 µM	–
N#Cc1ccccc1CSc1ccc(-c2nc3ccccc3[nH]2)cn1	inconclusive: 37.7 µM [inhibitor, single point]	–
CCN(C(=O)CN1C(=O)S/C(=C\c2cccc(OC)c2)C1=O)C1CCS(=O)(=O)C1 (stereo unspecified)	inconclusive: 29.9 µM [inhibitor, single point]	–
N#CC(Sc1ccccn1)c1ccc(Cl)cc1Cl (stereo unspecified)	inconclusive: 37.7 µM [inhibitor, single point]	–
Cc1ccccc1S(=O)(=O)N1[C@@H](c2ccc(Cl)cc2)C(C(=O)O)=CC[C@H]1c1ccc(Cl)cc1	active: 29.9 µM	–
Cc1nc(SCC(=O)c2ccccc2)c(C#N)c(-c2ccco2)c1C(=O)NCc1ccco1	inconclusive: 8.44 µM [inhibitor, partial curve]	–
COc1ccccc1C(=O)Nc1nnc(S(=O)(=O)N2CCCCCC2)s1	–	inactive: -11%
COc1ccccc1NS(=O)(=O)c1cc(NC(=O)c2ccc(=O)[nH]c2)ccc1N1CCOCC1	inconclusive: 21.2 µM [inhibitor, single point]	–

Further compounds.

Compound	Potency	max response, negative = inhibition
COc1cc(/C=C/C(=O)c2ccc3c(c2)OCCO3)cc(Br)c1OCC(=O)N(C)C	–	inactive: -1.99%
COc1ccc(C(CCNCc2ccc(OC(C)C)cc2)c2ccccc2OC)cc1 (stereo unspecified)	inconclusive: 26.7 µM [inhibitor, single point]	–
Cc1cc(C)cc(NC(=O)Oc2ccccc2N2CCCCC2)c1	inconclusive: 21.2 µM [inhibitor, partial curve]	–
O=c1[nH]c(C(Cl)Cl)nc2sc3c(c12)CCN(Cc1ccccc1)C3	inconclusive: 13.4 µM [inhibitor, partial curve]	–
Cc1ccnc(Nc2cccnc2)n1	–	inactive: -5.21%
O=C(CSC1=NCCN1)Nc1cccc([N+](=O)[O-])c1	–	inconclusive: -31.4% [inhibitor]
COc1ccc(CC(=O)N2CCN(c3ccccc3)CC2)cc1	–	inactive: 0.973%
CCCC(C(=O)O)n1c(O)c(C=C2N=c3ccccc3=N2)sc1=S (stereo unspecified)	–	inconclusive: -31.5% [inhibitor]
COCCCNC(=O)CC1C[C@H](C(=O)N2CCCCC2)[C@@]2(CCc3ccccc3)c3[nH]c4ccc(OC)cc4c3CCN2C1=O (stereo partly specified)	inconclusive: 21.2 µM [inhibitor, partial curve]	–
CCN(CC)c1nc2ccccc2nc1C(C#N)C(=O)NCCc1ccccc1 (stereo unspecified)	active: 13.4 µM	–
OCCCCCNc1ncnc2ccccc12	–	inactive: -3.45%
CN1NC(c2ccccc2)NN(C)C1=O	inconclusive: 29.9 µM [inhibitor, partial curve]	–
Cc1nn(CCC(N)=S)c2nc(-c3cccs3)cc(C(F)(F)F)c12	active: 10.6 µM	–
O=C(/C(=C/c1ccccc1)n1cncn1)c1ccc(Cl)cc1Cl	active: 18.9 µM	–
CCCC(=O)NC(=S)Nc1cccc(Cl)c1N1CCCCC1	inconclusive: 37.7 µM [inhibitor, single point]	–
O=C1C=C(c2ccc3cc[nH]c3c2)C[C@@H](c2ccc3c(c2)OCO3)C1	–	inconclusive: -31.7% [inhibitor]
C=CCSc1nnc(C)c(/C=C/Nc2ccc(Cl)cc2)n1	inconclusive: 21.2 µM [inhibitor, single point]	–
Cn1c(SC2=CS(=O)(=O)c3ccccc32)nc2ccccc21	–	inconclusive: -36.8% [inhibitor]
O=C(NNC(=S)Nc1cccc(C(F)(F)F)c1)c1ccc(Cl)cc1Cl	inconclusive: 15 µM [inhibitor, partial curve]	–
Cc1ccc(NC(=O)C2C(c3ccccc3)C=CC(c3ccccc3)C2C(=O)O)cc1 (stereo unspecified)	inconclusive: 29.9 µM [inhibitor, single point]	–
C=CCN(C(=O)CCC(=O)Nc1cc(C)on1)C(C(=O)NC(C)(C)C)c1ccc(OC)cc1 (stereo unspecified)	inconclusive: 26.7 µM [inhibitor, partial curve]	–
COc1cccc(/C=C2\SC(=S)N(CCCC(=O)N3CCCC3)C2=O)c1	–	inactive: -9.12%
CCCn1c(N)c(N(CCOC)C(=O)CSCC(=O)Nc2cccc(C)c2)c(=O)[nH]c1=O	–	inactive: -5.83%
Cc1ccc(/C=N/c2sc(Cc3ccccc3)c(C)c2C(N)=O)o1	inconclusive: 26.7 µM [inhibitor, partial curve]	–

Compound	Potency	max response, negative = inhibition
COc1ccc(NS(=O)(=O)c2ccc(-c3n[nH]c(=S)n3Cc3ccccc3)cc2)cc1	inconclusive: 23.8 µM [inhibitor, partial curve]	–
CCOc1ccc(N(C(C)C(=O)NC2CCCCCC2)S(C)(=O)=O)cc1 (stereo unspecified)	–	inconclusive: -33.2% [inhibitor]
Cn1c2c(c(=O)n3ncnc13)CCCC2	inconclusive: 26.7 µM [inhibitor, partial curve]	–
O=C(Nc1ccccc1)C1CC(O)CN1S(=O)(=O)c1ccc([N+](=O)[O-])cc1 (stereo unspecified)	inconclusive: 26.7 µM [inhibitor, partial curve]	–
CC/C(C)=N/Nc1nc(-c2cc3cccc(OC)c3oc2=O)cs1	–	inactive: -28.7%
O=C(COC(=O)C1CCN(c2ccc(C(F)(F)F)cn2)CC1)Nc1ccc(F)cc1[N+](=O)[O-]	–	inactive: -9.67%
COc1cc2c(cc1OC)-c1cc3ccc4c(c3c[n+]1CC2)OCO4	inconclusive: 8.44 µM [inhibitor, partial curve]	–
CCOc1ccc(/C=C2/SC(=O)NC2=S)cc1	inconclusive: 26.7 µM [inhibitor, single point]	–
Cc1ccc(C)c2c1cc(C)c1nnc(SCC(=O)Nc3cccc(C(=O)O)c3)n12	inconclusive: 67 µM [inhibitor, partial curve]	–
CCOC(=O)c1c(NC(=O)C2CCCN2S(=O)(=O)c2cccc3nsnc23)sc(C)c1C (stereo unspecified)	inconclusive: 75.2 µM [inhibitor, single point]	–
CNC(=O)c1[nH]cnc1C(=O)Nc1ccccc1C	–	inactive: -0.566%
O=C(CNS(=O)(=O)Cc1ccccc1)NCc1ccccc1	–	inactive: -5.57%
NC(=S)c1ccc(OCCCc2ccccc2)cc1	inconclusive: 26.7 µM [inhibitor, partial curve]	–
N#Cc1c(N2CCN(c3ccc(F)cc3)CC2)nc(N)c2c(N)nc3c(c12)CC(=O)N3C1CC1	–	inactive: -28.8%
COc1ccc(/C=N\Nc2ccc([N+](=O)[O-])cc2[N+](=O)[O-])c(C(=O)O)c1OC	–	inactive: -2.95%
Cc1csc(NC(=O)c2ccc3c(c2)OCO3)n1	–	inactive: -12.9%
COC(=O)c1sc2nc(-c3ccco3)ccc2c1N	–	inconclusive: -30.9% [inhibitor]
CCOc1ccc(NCc2cccn2-c2nnc(N3CCC(C(=O)NCCCN4C(C)CCCC4C)CC3)s2)cc1 (stereo unspecified)	inconclusive: 21.2 µM [inhibitor, single point]	–
CC(=O)C1=C(C)NC2=C(C(=O)c3ccccc32)C1c1ccccc1 (stereo unspecified)	–	inactive: -3.35%
Cc1ccccc1-c1nc(CN2CCC(C(=O)NCC3CCCO3)CC2)c(C)o1 (stereo unspecified)	–	inactive: -10.4%
O=C1NC2(CCCCCC2)Oc2ccccc21	inconclusive: 26.7 µM [inhibitor, single point]	–
Cc1ccc(NC(=O)c2nc[nH]c2C(=O)NCCCCCNC(=O)OC(C)(C)C)cc1	–	inactive: 4.81%
Cc1c(C(=O)O)cccc1-n1c(C)cc(C=O)c1C	–	inconclusive: -36.2% [inhibitor]
